In all, about 580,000 compounds went through this assay and about 6,100 (1.1%) were called active. The shares of active, inactive and inconclusive entries below differ from those in the screen. The call rests on the fitted dose curve; in most records, active means well fitted inhibition curve with a large enough effect; inconclusive means small, poorly fitted or top-dose-only effect, or another doubt; inactive means no such curve, though single readings can be large or run the other way. A potency beside an inconclusive call is a rough fit, not a confirmed value.
Each compound was assayed against Polyunsaturated fatty acid lipoxygenase ALOX12 (Homo sapiens) (UniProt P18054) (assay: Primary qHTS assay for inhibitors of human arachidonate 12S-lipoxygenase (ALOX12): Round 2). Details: purified 12hLO, xylenol orange hydroperoxide absorbance; activity change, negative = inhibition: at 108 µM (top of the series) unless noted.
Method in brief: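 Purified human 12hLO at 150 nM in 25 mM Hepes, 0.01% Triton X-100, pH 7.0, preincubated 15 min at room temperature with compound. Reaction started with 40 uM arachidonic acid, 30 min at room temperature. Hydroperoxide measured by Fe-xylenol orange, 573/405 nm absorbance ratio.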
On the % scale 0 is the no-effect control and ±100 the full control effect; potency means the concentration at half of the fitted maximal effect.

The chains behind the UniProt entries cited, without tags or fusion partners.
UniProt P18054, whole entry, looked up: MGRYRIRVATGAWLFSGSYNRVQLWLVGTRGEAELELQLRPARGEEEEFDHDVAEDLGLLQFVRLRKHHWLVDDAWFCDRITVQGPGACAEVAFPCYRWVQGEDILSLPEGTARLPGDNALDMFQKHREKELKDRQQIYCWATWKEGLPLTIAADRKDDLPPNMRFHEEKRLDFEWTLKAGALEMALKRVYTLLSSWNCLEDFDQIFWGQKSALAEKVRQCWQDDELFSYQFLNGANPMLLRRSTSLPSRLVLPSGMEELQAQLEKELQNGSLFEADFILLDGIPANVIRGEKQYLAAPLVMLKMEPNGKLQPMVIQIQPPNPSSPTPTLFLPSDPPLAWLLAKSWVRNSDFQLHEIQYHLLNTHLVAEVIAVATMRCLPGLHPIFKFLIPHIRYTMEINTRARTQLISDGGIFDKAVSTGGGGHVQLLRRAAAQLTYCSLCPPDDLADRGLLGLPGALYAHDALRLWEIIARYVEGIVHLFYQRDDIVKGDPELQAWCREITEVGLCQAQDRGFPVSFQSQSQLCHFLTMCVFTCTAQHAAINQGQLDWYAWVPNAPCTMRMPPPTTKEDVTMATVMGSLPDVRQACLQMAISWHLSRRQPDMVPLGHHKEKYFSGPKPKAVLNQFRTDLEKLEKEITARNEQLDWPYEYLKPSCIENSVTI

Row | Compound | activity change, negative = inhibition | Potency
1 | C(=N\Nc1nn2cnnc2c2ccccc12)/c1ccco1 | inactive: 9.03% | –
2 | C=C1C(=O)[C@]23C[C@H]1CC[C@H]2[C@]1(C)[C@@H](OC(C)=O)CC[C@@](C)(C(=O)O)[C@H]1C[C@@H]3OC(C)=O | inactive: 3.5% | –
3 | O=C(Nc1nnc(-c2ccncc2)s1)C1CCCO1 (stereo not drawn) | – | inconclusive: 5.62 µM [inhibitor, full curve]
4 | Cc1ccc(C)c(NC(=O)NC(=O)C(F)(F)F)c1 | – | inconclusive: 15.8 µM [inhibitor, full curve]
5 | Cc1ccc(C)c(/C=N/Nc2cc(C(F)(F)F)ccc2Cl)c1 | – | inconclusive: 3.55 µM [inhibitor, full curve, poor fit]
6 | C=C1c2ccccc2NC(=S)N1Cc1ccc2c(c1)OCO2 | – | inconclusive: 44.7 µM [inhibitor, partial curve, poor fit]
7 | COc1ccccc1NC(=O)c1cccc(N2C(=O)C3C4C=CC(C4)C3C2=O)c1 (stereo not drawn) | inactive: 3.88% | –
8 | O=C(COC(=O)Cc1ccc(Cl)c(Cl)c1)NCc1ccco1 | – | inconclusive: 44.7 µM [inhibitor, partial curve, poor fit]
9 | Cc1cc(C(=O)Nc2ccc(SC3CCCC3)cc2)c(C)o1 | – | inconclusive: 39.8 µM [inhibitor, partial curve, poor fit]
10 | CSc1cccc(NC(=O)c2ccc(NC(=O)N3CCSc4nc(C)cc(C)c43)cc2)c1 | – | inconclusive: 15.8 µM [inhibitor, full curve]
11 | O=[N+]([O-])c1ccc(NCCNc2ccc(Cl)nn2)cc1 | inactive: -5.18% | –
12 | N#Cc1ccc(NC(=O)c2csc3c2CCCC3)cc1 | – | inconclusive: 3.55 µM [inhibitor, full curve, poor fit]
13 | COc1cccc(/C(O)=C2/C(=O)C(=O)N(Cc3ccco3)C2c2ccncc2)c1 (stereo not drawn) | – | inconclusive: 22.4 µM [inhibitor, partial curve, poor fit]
14 | CCc1cc2c(=O)c(-c3ccc4c(c3)OCO4)coc2c(CN(C)C)c1O | – | inconclusive: 3.98 µM [inhibitor, full curve, poor fit]
15 | Cc1ccc(-n2ncc(C(=O)NCCCN3CCN(c4cccc(Cl)c4)CC3)c2-n2cccc2)cc1 | inconclusive: -66.7% [inhibitor] | –
16 | O=C1C(=Cc2ccccc2O)SC(=S)N1CCCN1CCOCC1 | – | inconclusive: 28.2 µM [inhibitor, partial curve]
17 | O=C/C=C/c1c(-c2ccccc2)cc2oc3ccccc3cc1-2 | – | inconclusive: 35.5 µM [inhibitor, partial curve]
18 | COCCCn1c(=S)[nH]c2sc3c(c2c1=O)CCCS3 | – | active: 44.7 µM
19 | CC1CCN(S(=O)(=O)c2ccc(NC(=O)CN3C(=O)NC(C)(c4ccccc4)C3=O)cc2)CC1 (stereo not drawn) | – | inconclusive: 39.8 µM [inhibitor, partial curve, poor fit]
20 | COc1ccc2nc(/N=C(\N)NC(=O)C(C)(C)C)nc(C)c2c1 | – | inactive
21 | C=C(C)C[C@H]1CC=C[C@H](CC(=C)C)[N+]1(C)C | – | active: 17.8 µM
22 | CCc1c(-c2cccc(Cl)c2)ncn1Cc1cccc(-c2ccccc2)c1 | – | inconclusive: 70.8 µM [inhibitor, partial curve, poor fit]
23 | CCc1cc(=O)oc2cc(OC(C)C(=O)NCc3ccncc3)c(Cl)cc12 (stereo not drawn) | – | inconclusive: 112 µM [inhibitor, single point]

Looked up by compound from the list above, 2 records:
Row | Compound | activity change, negative = inhibition | Potency
5 | Cc1ccc(C)c(/C=N/Nc2cc(C(F)(F)F)ccc2Cl)c1 | – | inconclusive: 3.55 µM [inhibitor, full curve, poor fit]
14 | CCc1cc2c(=O)c(-c3ccc4c(c3)OCO4)coc2c(CN(C)C)c1O | – | inconclusive: 3.98 µM [inhibitor, full curve, poor fit]

Next entries follow.

Row | Compound | activity change, negative = inhibition | Potency
24 | CCCc1cc(=O)[nH]c(=S)[nH]1 | – | inconclusive: 28.2 µM [inhibitor, single point]
25 | O=S(=O)(c1ccccc1Cl)N1CCCC(c2nc(-c3cccnc3)no2)C1 (stereo not drawn) | inactive: 22.1% | –
26 | CCC(C)NCc1ccc(C(=O)OC)o1 (stereo not drawn) | – | inconclusive: 11.2 µM [inhibitor, full curve, poor fit]
27 | CCCn1nc(C)cc1CN(C)c1ccc(NS(=O)(=O)c2cccc(Cl)c2C)cc1C(=O)O | – | inconclusive: 14.1 µM [inhibitor, full curve, poor fit]
28 | CCCSc1ncc(Cl)c(C(=O)Nc2nnc(CC)s2)n1 | inactive: 6.87% | –
29 | CCCN(Cc1cccs1)C(=O)Nc1cc(OC)c(OC)c(OC)c1 | inactive: 16.3% | –
30 | O=C(c1ccccc1)N1CCC2(CC1)SCC(=O)N2c1ccccc1 | inactive: 73.7% | –
31 | O=C(NNC(=S)NC(=O)c1ccc(Br)cc1)c1cccc([N+](=O)[O-])c1 | – | active: 39.8 µM
32 | COc1cc(C(=O)Nc2sc3ccccc3c(=O)c2-c2ccccc2)cc(OC)c1OC | inactive: -12% | –
33 | Cc1ccc(S(=O)(=O)N(CC(=O)N2CCN(C(=O)c3ccccc3)CC2)Cc2ccco2)cc1 | – | inconclusive: 44.7 µM [inhibitor, partial curve, poor fit]
34 | Cc1cccc(CNC(=O)C2CCN(c3nnc(-n4c(C)ccc4C)s3)CC2)c1 | inactive: -4.32% | –
35 | COCc1nc(C2CC(N)C2)cc(N2CCC(c3[nH]ncc3C)CC2)n1 (stereo not drawn) | – | inconclusive: 8.91 µM [inhibitor, full curve]
36 | O=S(=O)(c1ccc2c(c1)CCCC2)N1CCNCC1 | – | inconclusive: 158 µM [inhibitor, single point]
37 | COc1ccc(Cl)cc1NC(=O)CCS(=O)(=O)c1ccc(Br)cc1 | – | inconclusive: 44.7 µM [inhibitor, partial curve, poor fit]
38 | COC(=O)c1ccc(C2C(C(=O)c3cc4ccccc4o3)=C(O)C(=O)N2CCCN(C)C)cc1 (stereo not drawn) | – | inconclusive: 35.5 µM [inhibitor, partial curve, poor fit]
39 | O=C1NCCOCCCN(C(=O)NC2CCCCC2)[C@H]2CCCC[C@@H]12 | inactive: 39.1% | –
40 | Cc1ccc2c(c1)c1nnc(SCC(=O)N3CCN(c4ccc(F)cc4)CC3)nc1n2CC(=O)O | – | inconclusive: 7.94 µM [inhibitor, full curve, poor fit]
41 | COc1ccc(-c2csc3nc(C)n(-n4cccc4)c(=O)c23)cc1OC | inactive: -10.4% | –
42 | COc1ccc(OCC(=O)N2CCC[C@H]2c2nc(-c3ccc(OC)cc3)no2)cc1 | – | inconclusive: 39.8 µM [inhibitor, partial curve]
43 | CCc1ccc(C(=O)N2CCSCC2)s1 | inactive: -3.95% | –
44 | O=C(NCCCCCCNC(=O)c1cncc(O)c1)c1cncc(O)c1 | – | inconclusive: 35.5 µM [inhibitor, partial curve]
45 | COc1ccc(CNC(=O)c2c(C)oc3c2C(=O)c2ccccc2C3=O)cc1 | – | inconclusive: 89.1 µM [inhibitor, single point]
46 | CCOc1ccccc1Nc1nnc(SCc2nnc(-c3cc(OC)c(OC)c(OC)c3)o2)s1 | inactive: -9.82% | –

Row | Compound | activity change, negative = inhibition | Potency
47 | Cc1cc(OC(=O)c2cccc(Br)c2)c([N+](=O)[O-])c(=O)[nH]1 | – | inconclusive: 39.8 µM [inhibitor, partial curve]
48 | COC(=O)c1ccc(N)c(CS(=O)(=O)c2ccc(Cl)cc2)c1 | – | inconclusive: 31.6 µM [inhibitor, single point]
49 | CCN1C(=O)C2(Nc3ccccc3-c3nc4ccccc4n32)c2cc(OC)ccc21 (stereo not drawn) | inactive: -18.1% | –
50 | CC(Sc1nc2ccccc2[nH]1)C(=O)NC(N)=O (stereo not drawn) | inactive: -3.94% | –
51 | CC1(C)CC(=O)C(C(C2=C(O)CC(C)(C)CC2=O)c2cc(Cl)c(O)c(Cl)c2)C(=O)C1 (stereo not drawn) | – | inconclusive: 12.6 µM [inhibitor, partial curve]
52 | CC1(C(=O)NS(=O)(=O)c2cccs2)CCN1C(=O)C1(c2ccc(Cl)cc2)CCC1 (stereo not drawn) | – | inconclusive: 44.7 µM [inhibitor, partial curve, poor fit]
53 | CCC(c1nnnn1C(C)(C)C)N1CCN(Cc2ccccc2OC)CC1 (stereo not drawn) | inactive: 2.1% | –
54 | Cc1ccc(CNC(=O)C2CCCC2)cc1 | – | inconclusive: 79.4 µM [inhibitor, single point]
55 | Cn1c(C(=O)NCCc2ccccc2)cc2c(=O)n3ccccc3nc21 | inconclusive: -36.9% [inhibitor] | –
56 | CCCCn1c(=O)[nH]c(=O)c2c1nc(-c1ccc(OC)c(OCc3ccccc3)c1)n2C | – | inconclusive: 35.5 µM [inhibitor, partial curve, poor fit]
57 | COCCOc1ncccc1-c1noc([C@@H]2CCCN2CC2CC2)n1 | inactive: 21.1% [at 176 µM] | –
58 | CCOC(=O)CSc1nnc(Cn2c(=O)sc3ccccc32)n1-c1ccccc1C | – | inconclusive: 50.1 µM [inhibitor, single point]
59 | CC1CCN(S(=O)(=O)c2ccc(C(=O)Nc3sccc3C(N)=O)cc2)CC1 | – | inconclusive: 112 µM [inhibitor, single point]
60 | O/N=C(\c1ccccn1)C1CC1c1ccccc1 (stereo not drawn) | – | inconclusive: 2.82 µM [inhibitor, full curve]
61 | COc1ccc(/C=C/C(=O)c2ccccc2)cc1Cn1nnc2ccccc21 | inactive: 0.333% | –
62 | CC(=O)Nc1ccc(S(=O)(=O)NC2(C(F)(F)F)C(=O)Nc3c2c(=O)[nH]c(=O)n3-c2ccc(C)c(C)c2)cc1 (stereo not drawn) | – | inconclusive: 44.7 µM [inhibitor, partial curve, poor fit]
63 | COc1ccc(S(=O)(=O)N2CCN(Cc3cc(OC)c(O)c(OC)c3)CC2)cc1 | – | active: 0.562 µM
64 | COCc1ccc(C(=O)N2CCCC(C(=O)c3ccc(Cl)cc3C)C2)o1 (stereo not drawn) | inactive: -26.2% | –
65 | N#Cc1cnc2cc(-c3ccccc3)nn2c1N | – | inconclusive: 35.5 µM [inhibitor, partial curve, poor fit]
66 | CC(Sc1ncc(-c2cccc(Br)c2)o1)C(=O)NCCc1ccccc1 (stereo not drawn) | – | inconclusive: 79.4 µM [inhibitor, partial curve, poor fit]
67 | CCOc1ccc(NS(=O)(=O)c2ccc3[nH]cc(C(=O)NC4CCCC4)c(=O)c3c2)cc1 | – | inconclusive: 50.1 µM [inhibitor, partial curve, poor fit]
68 | Cc1ccc(C)c(C(=O)NC2CCCN(c3cc(-c4ccccc4)[nH]n3)C2)c1 (stereo not drawn) | inactive: -4.61% | –

Ordered by length of the SMILES (largest number first): 4 of the compounds above.
Row | Compound | activity change, negative = inhibition | Potency
32 | COc1cc(C(=O)Nc2sc3ccccc3c(=O)c2-c2ccccc2)cc(OC)c1OC | inactive: -12% | –
66 | CC(Sc1ncc(-c2cccc(Br)c2)o1)C(=O)NCCc1ccccc1 (stereo not drawn) | – | inconclusive: 79.4 µM [inhibitor, partial curve, poor fit]
65 | N#Cc1cnc2cc(-c3ccccc3)nn2c1N | – | inconclusive: 35.5 µM [inhibitor, partial curve, poor fit]
43 | CCc1ccc(C(=O)N2CCSCC2)s1 | inactive: -3.95% | –

From PubChem BioAssay AID1671190 (National Center for Advancing Translational Sciences (NCATS), 2021)
